# Reference: the supplement of paper PMC8728848
# The other results are listed elsewhere or left out.
# B1: GS7807F-bth-514-18-514 (Bacteroides thetaiotaomicron) (protein)
# chain: AGSCTGNFEEYNTNQFQIHEADPSTLMKSMIETIVNIQQNDSQMMDQMVGQLGGYLTCANVWSGTNFGTFNQSDAWNAGPWNTNFEKIYGNFFQIQEATNESGHYYAFARMIRAITMLRVADCYGPMPYSQVKKGNFYVAYDTEEQVYKNIMEDFASAANVLYNYYKDTNGNAPLASNDPVFSGNYANWARLANSMRLRVAIRISTAYPEMAKENAEAAASHEAGLIEANNDNAMMDCGSQTNPYQLAAVSWGDLRVNANIVDYMNGYGDPRMSKYFNHSTFTGHTQEYVGMRSGEDGFAKSDVAGYSIPAITGTSKLLVFCAAETAFLRAEGKLKNWSVGNKSAKEYYEEGIKLSMEQYGTTMPDNYLTNTEKPTVSHNNDPRGHAYTISNTVAVAWNDNNEEENLQRIITQKWIANYPLGLEAWAEYRRTGYPELYPCIDNLSPSGVDSKRGMRRLRFPYTEVQNNHSNYQQGVSYLKNGGPDNEATDLSWGKTN
# Experiments:
# Test in all cases: glycan array binding signal (z-score within array); higher = stronger binding
# Details in all cases: glycan notation: IUPAC condensed, linker removed
# [1] = target: Fuc(a1-2)[GalNAc(a1-3)]Gal(b1-3)GlcNAc(b1-6)GalNAc
# Outline: (§1)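 From the Consortium for Functional Glycomics database, 3228 arrays were curated, keeping only those whose protein sequence was available. Binding is given as a within-array Z-score averaged across arrays sharing a protein sequence and across linkers. Negative Z-scores can be read as non-binding.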
# [2] = target: Fuc(a1-2)[GalNAc(a1-3)]Gal(b1-4)Glc
# Outline: as §1
# [3] = target: Fuc(a1-2)[GalNAc(a1-3)]Gal(b1-4)GlcNAc
# Outline: as §1
# [4] = target: Fuc(a1-2)[GalNAc(a1-3)]Gal(b1-4)GlcNAc(b1-2)Man
# Outline: as §1
# [5] = target: Fuc(a1-2)[GalNAc(a1-3)]Gal(b1-4)GlcNAc(b1-2)Man(a1-3)[Fuc(a1-2)[GalNAc(a1-3)]Gal(b1-4)GlcNAc(b1-2)Man(a1-6)]Man(b1-4)GlcNAc(b1-4)GlcNAc
# Outline: as §1
# [6] = target: Fuc(a1-2)[GalNAc(a1-3)]Gal(b1-4)GlcNAc(b1-2)Man(a1-3)[Fuc(a1-2)[GalNAc(a1-3)]Gal(b1-4)GlcNAc(b1-2)Man(a1-6)]Man(b1-4)GlcNAc(b1-4)[Fuc(a1-6)]GlcNAc
# Outline: as §1
# [7] = target: Fuc(a1-2)[GalNAc(a1-3)]Gal(b1-4)GlcNAc(b1-3)Gal(b1-4)GlcNAc
# Outline: as §1
# [8] = target: Fuc(a1-2)[GalNAc(a1-3)]Gal(b1-4)GlcNAc(b1-3)Gal(b1-4)GlcNAc(b1-3)Gal(b1-4)GlcNAc
# Outline: as §1
# [9] = target: Fuc(a1-2)[GalNAc(a1-3)]Gal(b1-4)GlcNAc(b1-3)GalNAc
# Outline: as §1
# [10] = target: Fuc(a1-2)[GalNAc(a1-3)]Gal(b1-4)GlcNAc(b1-3)[Fuc(a1-2)[GalNAc(a1-3)]Gal(b1-4)GlcNAc(b1-6)]GalNAc
# Outline: as §1
# [11] = target: Fuc(a1-2)[GalNAc(a1-3)]Gal(b1-4)GlcNAc(b1-6)GalNAc
# Outline: as §1
# [12] = target: Fuc(a1-2)[GalNAc(a1-3)]Gal(b1-4)[Fuc(a1-3)]GlcNAc
# Outline: as §1
# [13] = target: Fuc(a1-2)[GalNAc(a1-3)]Gal(b1-4)[Fuc(a1-3)]GlcNAc(b1-3)GalNAc
# Outline: as §1
# [14] = target: Fuc(a1-2)[GalNAc(a1-4)]Gal(b1-4)GlcNAc
# Outline: as §1
# [15] = target: Fuc(a1-2)[GalNAc(b1-3)]Gal
# Outline: as §1
# Fuc(a1-3)GlcNAc = target: Fuc(a1-3)GlcNAc
# Outline: as §1
# [16] = target: Fuc(a1-3)[Gal(b1-4)]Glc6S
# Outline: as §1
# [17] = target: Fuc(a1-3)[Gal(b1-4)]GlcNAc
# Outline: as §1
# [18] = target: Fuc(a1-3)[Gal(b1-4)]GlcNAc(b1-2)Man
# Outline: as §1
# [19] = target: Fuc(a1-3)[Gal(b1-4)]GlcNAc(b1-2)Man(a1-3)[Fuc(a1-3)[Gal(b1-4)]GlcNAc(b1-2)Man(a1-6)]Man(b1-4)GlcNAc(b1-4)GlcNAc
# Outline: as §1
# [20] = target: Fuc(a1-3)[Gal(b1-4)]GlcNAc(b1-2)Man(a1-3)[Fuc(a1-3)[Gal(b1-4)]GlcNAc(b1-2)Man(a1-6)]Man(b1-4)GlcNAc(b1-4)[Fuc(a1-6)]GlcNAc
# Outline: as §1
# [21] = target: Fuc(a1-3)[Gal(b1-4)]GlcNAc(b1-3)Gal(b1-3)[Fuc(a1-4)]GlcNAc
# Outline: as §1
# [22] = target: Fuc(a1-3)[Gal(b1-4)]GlcNAc(b1-3)Gal(b1-4)[Fuc(a1-3)]GlcNAc
# Outline: as §1
# [23] = target: Fuc(a1-3)[Gal(b1-4)]GlcNAc(b1-3)Gal(b1-4)[Fuc(a1-3)]GlcNAc(b1-3)Gal(b1-4)[Fuc(a1-3)]GlcNAc
# Outline: as §1
# [24] = target: Fuc(a1-3)[Gal(b1-4)]GlcNAc(b1-3)GalNAc
# Outline: as §1
# [25] = target: Fuc(a1-3)[Gal(b1-4)]GlcNAc(b1-6)GalNAc
# Outline: as §1
# [26] = target: Fuc(a1-3)[Gal(b1-4)]GlcNAc(b1-6)[Gal(b1-3)GlcNAc(b1-3)]Gal(b1-4)Glc
# Outline: as §1
# [27] = target: Fuc(a1-3)[Gal(b1-4)]GlcNAc6S
# Outline: as §1
# [28] = target: Fuc(a1-3)[Gal3S(b1-4)]Glc
# Outline: as §1
# [29] = target: Fuc(a1-3)[Gal3S(b1-4)]GlcNAc
# Outline: as §1
# [30] = target: Fuc(a1-3)[Gal3S(b1-4)]GlcNAc6S
# Outline: as §1
# [31] = target: Fuc(a1-3)[GalNAc(b1-4)]GlcNAc
# Outline: as §1
# [32] = target: Fuc(a1-3)[GalNAc(b1-4)]GlcNAc6S
# Outline: as §1
# Fuc(a1-4)GlcNAc = target: Fuc(a1-4)GlcNAc
# Outline: as §1
# Fuc(b1-3)GlcNAc = target: Fuc(b1-3)GlcNAc
# Outline: as §1
# Gal(a1-2)Gal = target: Gal(a1-2)Gal
# Outline: as §1
# Gal(a1-3)Gal = target: Gal(a1-3)Gal
# Outline: as §1
# Gal(a1-3)Gal(b1-3)GlcNAc = target: Gal(a1-3)Gal(b1-3)GlcNAc
# Outline: as §1
# [33] = target: Gal(a1-3)Gal(b1-3)GlcNAc(b1-2)Man
# Outline: as §1
# [34] = target: Gal(a1-3)Gal(b1-3)GlcNAc(b1-2)Man(a1-3)[Gal(a1-3)Gal(b1-3)GlcNAc(b1-2)Man(a1-6)]Man(b1-4)GlcNAc(b1-4)GlcNAc
# Outline: as §1
# [35] = target: Gal(a1-3)Gal(b1-3)GlcNAc(b1-3)GalNAc
# Outline: as §1
# [36] = target: Gal(a1-3)Gal(b1-3)GlcNAc(b1-6)GalNAc
# Outline: as §1
# [37] = target: Gal(a1-3)Gal(b1-3)[Fuc(a1-4)]GlcNAc(b1-2)Man(a1-3)[Gal(a1-3)Gal(b1-3)[Fuc(a1-4)]GlcNAc(b1-2)Man(a1-6)]Man(b1-4)GlcNAc(b1-4)GlcNAc
# Outline: as §1
# Gal(a1-3)Gal(b1-4)Glc = target: Gal(a1-3)Gal(b1-4)Glc
# Outline: as §1
# Gal(a1-3)Gal(b1-4)GlcNAc = target: Gal(a1-3)Gal(b1-4)GlcNAc
# Outline: as §1
binder,measurement,setting,value
B1,glycan array binding signal (z-score),[1],-0.854
same,glycan array binding signal (z-score),[2],-0.891
same,glycan array binding signal (z-score),[3],-0.859
same,glycan array binding signal (z-score),[4],-0.825
same,glycan array binding signal (z-score),[5],1.47
same,glycan array binding signal (z-score),[6],0.216
same,glycan array binding signal (z-score),[7],-0.908
same,glycan array binding signal (z-score),[8],1.24
same,glycan array binding signal (z-score),[9],-0.428
same,glycan array binding signal (z-score),[10],-0.118
same,glycan array binding signal (z-score),[11],-0.866
same,glycan array binding signal (z-score),[12],0.161
same,glycan array binding signal (z-score),[13],1.09
same,glycan array binding signal (z-score),[14],2.23
same,glycan array binding signal (z-score),[15],3.2
same,glycan array binding signal (z-score),Fuc(a1-3)GlcNAc,-0.58
same,glycan array binding signal (z-score),[16],0.783
same,glycan array binding signal (z-score),[17],-0.617
same,glycan array binding signal (z-score),[18],-0.562
same,glycan array binding signal (z-score),[19],0.769
same,glycan array binding signal (z-score),[20],2.25
same,glycan array binding signal (z-score),[21],-0.42
same,glycan array binding signal (z-score),[22],-0.561
same,glycan array binding signal (z-score),[23],-0.795
same,glycan array binding signal (z-score),[24],-0.106
same,glycan array binding signal (z-score),[25],-0.328
same,glycan array binding signal (z-score),[26],-0.59
same,glycan array binding signal (z-score),[27],0.465
same,glycan array binding signal (z-score),[28],-0.297
same,glycan array binding signal (z-score),[29],-0.588
same,glycan array binding signal (z-score),[30],-0.018
same,glycan array binding signal (z-score),[31],-0.675
same,glycan array binding signal (z-score),[32],-0.739
same,glycan array binding signal (z-score),Fuc(a1-4)GlcNAc,-0.589
same,glycan array binding signal (z-score),Fuc(b1-3)GlcNAc,-0.837
same,glycan array binding signal (z-score),Gal(a1-2)Gal,-0.45
same,glycan array binding signal (z-score),Gal(a1-3)Gal,0.854
same,glycan array binding signal (z-score),Gal(a1-3)Gal(b1-3)GlcNAc,0.018
same,glycan array binding signal (z-score),[33],2.61
same,glycan array binding signal (z-score),[34],0.958
same,glycan array binding signal (z-score),[35],-0.446
same,glycan array binding signal (z-score),[36],0.449
same,glycan array binding signal (z-score),[37],2.27
same,glycan array binding signal (z-score),Gal(a1-3)Gal(b1-4)Glc,0.824
same,glycan array binding signal (z-score),Gal(a1-3)Gal(b1-4)GlcNAc,0.823

# Reformatted: entries from further up
binder | measurement | setting | value
B1 | glycan array binding signal (z-score) | [5] | 1.47
same | glycan array binding signal (z-score) | [14] | 2.23
same | glycan array binding signal (z-score) | Fuc(a1-3)GlcNAc | -0.58
same | glycan array binding signal (z-score) | [22] | -0.561
same | glycan array binding signal (z-score) | [23] | -0.795
same | glycan array binding signal (z-score) | [25] | -0.328
same | glycan array binding signal (z-score) | Fuc(b1-3)GlcNAc | -0.837
same | glycan array binding signal (z-score) | Gal(a1-3)Gal(b1-3)GlcNAc | 0.018
